## Screening data, single-dose tests

From ChEMBL document CHEMBL3988442, “University of Dundee, Small-Polar-MMV Screening Library” (2021).

Mtb glucose medium: 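Phenotypic screen: M. tuberculosis growth, glucose 7H9 medium, 3 days; the read-out is not stated. Concentration: 50 µM. Higher reads as more growth inhibition (inferred: compounds with an IC50 in retests scored well above the rest). Size under these conditions: about 69,000 compounds, about 760 of them at 50% or above in at least one test.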
Mtb cholesterol medium: 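Growth of Mycobacterium tuberculosis over 4 days (cholesterol / DPPC medium with tyloxapol); the read-out is not stated. Compounds at 50 µM. Higher reads as more growth inhibition (inferred: compounds with an IC50 in retests scored well above the rest). Of about 69,000 compounds tested this way, about 370 (0.54%) reached 50% or more in at least one test.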

Each number is a percent effect as filed. How 0% and 100% were set is not recorded. Most values in the screen are low, and negative values occur. This is an unselected part of the compounds tested. Two or more numbers in one place are separate tests of the same structure; such repeats can differ widely.

COCCN1CCC2(CCC1=O)CN(C1CCOCC1)CCN2C (stereo not given) gave Mtb glucose medium: -5.185%; Mtb cholesterol medium: 16.71%. With [H][C@@]12CNC[C@]1([H])N(C(=O)C1CCCC1)CCO2 the screen gave Mtb glucose medium: -11.94% and -49.71%; Mtb cholesterol medium: -3.787%. Result for COc1ccccc1C(=O)N1CCC(Nc2ccc(C)nn2)CC1 was Mtb glucose medium: -9.175%; Mtb cholesterol medium: -28.46%. With NCc1cccc(-c2cccnc2C(=O)NCCCN2CCOCC2)c1 the screen gave Mtb glucose medium: -2.273%; Mtb cholesterol medium: 0.7987%. COc1ccc(C2CNCCN2C(=O)c2cccc3ncccc23)cc1 (stereo not given) read Mtb glucose medium: -14.19%; Mtb cholesterol medium: 2.506%. [H][C@@]12COC[C@]1([H])[C@@H](OCc1csc(C)n1)CN2C(=O)c1cccnc1 gave Mtb glucose medium: -14.77%; Mtb cholesterol medium: -9.232%. With Cn1ccnc1CN1CCN(Cc2ccccc2C#N)CC1 the screen gave Mtb glucose medium: 20.19%; Mtb cholesterol medium: 4.848%. CC(Cn1cccn1)NC(=O)N1CCN(Cc2ccsc2)CC1 (stereo not given) read Mtb glucose medium: -15.65%; Mtb cholesterol medium: -31.45%.

O=C(O)C(F)(F)F.[H][C@@]12COC[C@@H](CC(=O)N3CCCCO3)[C@]1([H])CN(Cc1ccc(F)cc1)C2 gave Mtb glucose medium: -23.66%; Mtb cholesterol medium: 3.778%. For COc1ccc(N2CCN(C(=O)COc3c(C)occc3=O)CC2)cc1 the result was Mtb glucose medium: 27.32%; Mtb cholesterol medium: -10.98%. O=S1(=O)NC2(CCCN(Cc3ccc(F)cc3)C2)COc2ccccc21 (stereo not given) gave Mtb glucose medium: -6.809%; Mtb cholesterol medium: -12.47%. CN1CCCC(c2cccc(CCC(N)=O)n2)C1 (stereo not given) read Mtb glucose medium: 0.2928%; Mtb cholesterol medium: -15.89%. CN(C)C(=O)c1sc2ncccc2c1C1CNCCO1.Cl (stereo not given) read Mtb glucose medium: 20.72%; Mtb cholesterol medium: 7.631%. CSCc1noc(CNC(=O)C2CCN(C(=O)C3CCCC3)CC2)n1 gave Mtb glucose medium: -0.2732% and -6.724%; Mtb cholesterol medium: 12.06%. With COc1ccc(C2CCCN2C(=O)c2csc(NC(C)=O)n2)cc1 (stereo not given) the screen gave Mtb glucose medium: -9.591%; Mtb cholesterol medium: -24.27%. With CCCC(=O)N(C)C(c1cccc(F)c1)c1ccccn1 (stereo not given) the screen gave Mtb glucose medium: 13.91%; Mtb cholesterol medium: -2.929%.

Cc1cccc(Nc2c(C#N)c(=O)n(C)c(=O)n2C)c1 read Mtb glucose medium: 3.304% and -7.969%; Mtb cholesterol medium: -5.723%. For CCn1cncc1CN(Cc1ccc(OC)cc1OC)CC1CCCO1.O=C(O)CC(O)(CC(=O)O)C(=O)O (stereo not given) the result was Mtb glucose medium: 16.71%; Mtb cholesterol medium: 10.81%. CC(C)=CCC1(CO)CCCN(S(=O)(=O)N2CCCC2)C1 (stereo not given) gave Mtb glucose medium: 15.81%; Mtb cholesterol medium: 6.494%. CCC[C@@H]1CN(C(=O)c2conc2-c2ccccc2)C[C@H]1N(C)C read Mtb glucose medium: -9.22%; Mtb cholesterol medium: -12.87%. O=C(O)C(F)(F)F.[H][C@@]12CN(Cc3nccs3)CCC[C@]1(C(=O)OCC)CN(S(C)(=O)=O)C2 gave Mtb glucose medium: -20.78% and -4.877%; Mtb cholesterol medium: -7.292% and -14.8%. Result for Cc1ccc(-c2nc(CCNC(=O)NC3CCN(C)CC3)co2)cc1 was Mtb glucose medium: -9.339%; Mtb cholesterol medium: -5.252%. With Cc1noc(C)c1CCC(=O)N[C@@H]1CCC[C@@H](Oc2cccnc2)[C@@H]1O the screen gave Mtb glucose medium: 19.3%; Mtb cholesterol medium: -2.86%. For O=C(O)C(F)(F)F.[H][C@@]12COC[C@@H](CC(=O)N3CCCCO3)[C@]1([H])CN(CC1CC1)C2 the result was Mtb glucose medium: 8.559%; Mtb cholesterol medium: -0.7477%.

With CN1C(=O)CC(N(C)Cc2nc3ccccc3c(=O)[nH]2)C1=O (stereo not given) the screen gave Mtb glucose medium: -11.87%; Mtb cholesterol medium: -14.83%. For O=C(O)C(F)(F)F.[H][C@]12CC[C@@]3(N=C(C)N(CC4CC4)C3=O)[C@@]1([H])CN(Cc1ccccc1F)C2 the result was Mtb glucose medium: 14.04%; Mtb cholesterol medium: -8.248% and 1.256%. CC(OCC(F)(F)F)C(=O)N1CCOCC1 (stereo not given) gave Mtb glucose medium: -16.98%; Mtb cholesterol medium: -4.161%.

Repeated from the top, 2 entries:

Compound	Mtb glucose medium	Mtb cholesterol medium
COCCN1CCC2(CCC1=O)CN(C1CCOCC1)CCN2C (stereo not given)	-5.185%	16.71%
[H][C@@]12CNC[C@]1([H])N(C(=O)C1CCCC1)CCO2	-11.94% and -49.71%	-3.787%